PubChem BioAssay AID652243, Drosophila RNAi Screening Center, 2013
The screen tested about 24,000 reagents; shown is a random part of those that have a named target and a result. Of all reagents, 246 (1%) are marked active. 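Plates not normalised; calls are printed but the firefly/Renilla ratio behind them is not deposited; fold cut for lowering reported inconsistently.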 Raw values are not corrected between plates. A number with no mark means an inactive call. Names joined by + are all predicted targets of the reagent. Not stated in the record: the amount of reagent.

- Screen: 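Fly regulators of androgen-dependent reporter output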 (primary screen)
- Cells: Drosophila S2R+ cells
- Reagents: long dsRNA against Drosophila genes
- Duration: 72 h (48 h, then 24 h hormone)
- Challenge: synthetic androgen R1881 at 10 nM for 24 h
- Detection: 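Per-well raw luminescence of the androgen-driven firefly reporter and of the Renilla control, two replicates each, without normalisation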
- Reading the numbers: firefly reporter light: higher = more light from androgen-responsive reporter; Renilla control light: higher = more constitutive control signal (cell number, transfection)
- Call rule: 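Across duplicate plates, a knock-down whose log firefly/Renilla ratio shifted a set fold down or up from the GFP/LacZ control mean was a hit; the downward cut appears as both 1.5 and 3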
- Meaning of the calls: active = hit: reporter lowered or raised; inactive = no hit

The first 6 records, to show the layout:
target,dsRNA,"firefly reporter light, replicate 1","firefly reporter light, replicate 2","Renilla control light, replicate 1","Renilla control light, replicate 2"
Wdfy2 (WD repeat and FYVE domain containing 2),DRSC02822,7.91e5,1.00e6,2.06e6,1.99e6
Wdfy2 (WD repeat and FYVE domain containing 2),DRSC29755,5.02e5,3.32e5,1.74e6,1.35e6
Mnat9 (microtubule-associated Nat9),DRSC14325,2.55e5,1.73e5,1.80e6,3.35e6
Lon (Lon protease),DRSC11049,57576,43535,3.88e5,2.27e5
Lon (Lon protease),DRSC26015,3.02e5,3.74e5,1.03e6,9.92e5
CG7457,DRSC10849,1.06e5,1.05e5,1.37e6,1.33e6

Main list, from the start:
target,dsRNA,"firefly reporter light, replicate 1","firefly reporter light, replicate 2","Renilla control light, replicate 1","Renilla control light, replicate 2"
Wdfy2 (WD repeat and FYVE domain containing 2),DRSC02822,7.91e5,1.00e6,2.06e6,1.99e6
Wdfy2 (WD repeat and FYVE domain containing 2),DRSC29755,5.02e5,3.32e5,1.74e6,1.35e6
Mnat9 (microtubule-associated Nat9),DRSC14325,2.55e5,1.73e5,1.80e6,3.35e6
Lon (Lon protease),DRSC11049,57576,43535,3.88e5,2.27e5
Lon (Lon protease),DRSC26015,3.02e5,3.74e5,1.03e6,9.92e5
CG7457,DRSC10849,1.06e5,1.05e5,1.37e6,1.33e6
CG7457,DRSC27107,6.46e5,5.84e5,6.02e5,4.45e5
CG34215,DRSC38697,7.27e5,7.41e5,1.71e6,2.09e6
CG14722,DRSC14944,22744,44179,2.79e5,4.29e5
CG14722,DRSC24593,1.43e6,1.67e6,1.13e6,1.24e6
CG14722,DRSC39066,1.32e6,6.78e5,2.51e6,1.48e6
CG33644,DRSC37862,5.45e5,5.92e5,7.32e5,1.18e6
RPA3 (Replication protein A3),DRSC19658,4.81e5,4.27e5,4.93e6,3.62e6
CG18011,DRSC06697,7.09e5,5.97e5,1.05e6,1.13e6
CG18011,DRSC06706,3.11e5,2.49e5,1.75e6,1.97e6
mRpL17 (mitochondrial ribosomal protein L17),DRSC08350,1.09e5,1.33e5,1.47e6,1.58e6
CG6830,DRSC16124,2.85e5,3.48e5,3.33e6,3.22e6
CG6830,DRSC27278,2.18e5,2.19e5,5.42e5,5.63e5
CG33342 (HDC15381),DRSC13662,83504,1.44e5,1.68e5,2.10e5
CG15765,DRSC23026,6.16e5,6.34e5,1.09e6,1.09e6
CG15765,DRSC29271,4.21e5,4.16e5,6.03e5,6.07e5
Boh2 (Buddy of Hmr 2),DRSC02777,2.24e5,2.42e5,1.40e6,1.61e6
CG1909,DRSC17150,69856,65122,4.39e5,3.75e5
CG15549,DRSC15087,2.54e5,2.47e5,1.71e6,3.37e6
CG31139,DRSC21393,9.09e5,1.08e6,3.46e5,3.61e5
CG4612,DRSC04478,6.51e5,4.63e5,1.22e6,1.03e6
CG4554,DRSC04473,6.29e5,6.00e5,1.75e6,1.96e6
CG4554,DRSC27881,6.30e5,4.12e5,2.30e6,1.26e6
PQBP1 (Poly-glutamine tract binding protein 1),DRSC14393,44782,66682,3.93e5,4.90e5
CG15472,DRSC18055,1.84e5,2.81e5,2.16e6,1.62e6
CG3634,DRSC11747,2.12e5,1.65e5,1.99e6,2.05e6
lcs (la costa),DRSC20580,1.88e5,2.40e5,4.07e5,5.05e5
lcs (la costa),DRSC25611,6.01e5,4.22e5,4.11e5,4.70e5
CG31176,DRSC15038,2.06e5,2.02e5,3.08e6,3.31e6
CG31176,DRSC16021,2.14e5,2.67e5,2.89e6,4.32e6
Ktch (Ketchup),DRSC15094,1.77e5,1.55e5,2.17e6,2.51e6
Ktch (Ketchup),DRSC25973,3.52e5,2.59e5,5.74e5,4.84e5
comm2,DRSC10877,3.58e5,3.86e5,3.29e6,2.87e6
CG14933 + CG42486,DRSC02415,3.18e5,2.12e5,2.38e6,1.94e6
CG18622,DRSC15360,2.34e5,2.98e5,2.29e6,2.69e6
Rad51D (Rad51 recombinase D),DRSC06840,2.85e5,2.60e5,1.97e6,1.74e6
Prp3 (Precursor RNA processing 3),DRSC10912,2.20e5,1.73e5,2.27e6,1.96e6
CG5339,DRSC04496,4.36e5,5.86e5,7.42e5,9.79e5
Cpr76Bd (Cuticular protein 76Bd),DRSC11063,2.38e5,1.87e5,2.09e6,1.79e6
CG9117,DRSC03141,2.21e5,1.64e5,1.99e6,1.13e6
CG9864,DRSC07346,66311,97955,8.08e5,9.08e5
CG9864,DRSC28765,5.02e5,7.76e5,1.22e6,1.15e6
NimB3 (Nimrod B3),DRSC37871,1.27e6,1.22e6,1.69e6,1.80e6
stil (stand still),DRSC07699,7.64e5,8.54e5,1.12e6,1.25e6
CREG (Cellular Repressor of E1A-stimulated Genes),DRSC16595,65258,55073,1.30e6,7.52e5
CG32037,DRSC10363,2.80e5,2.56e5,3.46e6,2.52e6
Cals (Calsyntenin),DRSC17196,1.16e5,1.13e5,1.16e6,6.87e5
Cals (Calsyntenin),DRSC21661,7.73e5,1.01e6,1.67e6,1.67e6
mgr (merry-go-round),DRSC16099,1.62e5,1.15e5,1.95e6,2.09e6
CG7329,DRSC03046,2.02e5,2.31e5,1.39e6,1.57e6
CG7329,DRSC26137,2.70e5,2.64e5,8.04e5,7.91e5
Vps28 (Vacuolar protein sorting 28),DRSC06168,8.20e5,9.11e5,1.44e6,1.34e6
ImpL2 (Ecdysone-inducible gene L2),DRSC08666,1.20e6,4.49e5,1.47e6,6.08e5
ImpL2 (Ecdysone-inducible gene L2),DRSC28691,4.01e5,5.46e5,1.82e6,1.63e6
